Consider one substance from publication PMC5865166, “MultiBacMam Bimolecular Fluorescence Complementation (BiFC) tool-kit identifies new small-molecule inhibitors of the CDK5-p25 protein-protein interaction (PPI)” (Scientific Reports, 2018).

Chains of the proteins cited; added tags and fusions are not shown. Residues count along the entry.
UniProt Q15078, residues 99-307: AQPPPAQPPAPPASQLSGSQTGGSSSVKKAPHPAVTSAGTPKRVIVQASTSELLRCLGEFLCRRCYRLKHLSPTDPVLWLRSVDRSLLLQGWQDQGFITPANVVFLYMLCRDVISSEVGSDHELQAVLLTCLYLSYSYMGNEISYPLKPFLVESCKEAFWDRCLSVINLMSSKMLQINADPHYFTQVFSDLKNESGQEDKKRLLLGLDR

These are yes or no findings as the source states them, for the method shown. Binding seen in cells or lysates may run through a third protein. Some results given as binding are weak or reduced against the parent protein; the word gives no strength.

In assay [1] the target is VN-CDK5(D144N) (UniProt Q00535). Description: split reporter; Venus BiFC; plasmid-based transfection of U2OS cells.
Assay [2] shares this target. As to the kind of experiment: split reporter; Venus BiFC; U2OS, HeLa and Cos7 cells transduced with MultiBacMam baculovirus at MOI 25 to 500; fixed, Hoechst 33342 stained, imaged.

With “VC-p25 (from UniProt Q15078 99-307) (domain or fragment)”, the binding entry in the assay with VN-CDK5(D144N) [1] and with VN-CDK5(D144N) [2] was “binds” throughout.
